{"source": "patent US20090247646A1", "about": "“USE OF RESVERATROL AND DERIVATIVES THEREOF FOR PROMOTING THE WELLNESS STATE IN MAMMALS” (priority 2006, published 2009)", "system": "gene expression in heart tissue", "assay": "Genome-wide gene expression in heart tissue of old mice fed a resveratrol-supplemented diet (Affymetrix Mouse Genome 430 2.0 array)", "assay_type": "in vivo", "note": "This continues a long series; more values of the same kind are listed elsewhere.", "data": [{"smiles": "Oc1ccc(/C=C/c2cc(O)cc(O)c2)cc1", "note": "[resveratrol, 3,4′,5-Trihydroxy-trans-stilbene]", "values": [{"measurement": "Effect of resveratrol on changeing gene expression from old to young profile", "setting": "1449024_a_at hexosaminidase A", "value": "70-80%"}, {"measurement": "Effect of resveratrol on changeing gene expression from old to young profile", "setting": "1449065_at cytosolic acyl-CoA thioesterase 1", "value": "90-100%"}, {"measurement": "Effect of resveratrol on changeing gene expression from old to young profile", "setting": "1449117_at Jun proto-oncogene related gene d1", "value": ">100", "unit": "%"}, {"measurement": "Effect of resveratrol on changeing gene expression from old to young profile", "setting": "1449137_at pyruvate dehydrogenase E1 alpha 1", "value": "60-70%"}, {"measurement": "Effect of resveratrol on changeing gene expression from old to young profile", "setting": "1449341_a_at erythrocyte protein band 7.2", "value": "<60", "unit": "%"}, {"measurement": "Effect of resveratrol on changeing gene expression from old to young profile", "setting": "1449349_at nudix (nucleoside diphosphate linked moiety X)-type motif 1", "value": ">100", "unit": "%"}, {"measurement": "Effect of resveratrol on changeing gene expression from old to young profile", "setting": "1449503_at karyopherin (importin) alpha 1", "value": "90-100%"}, {"measurement": "Effect of resveratrol on changeing gene expression from old to young profile", "setting": "1449514_at G protein-coupled receptor kinase 5", "value": "80-90%"}, {"measurement": "Effect of resveratrol on changeing gene expression from old to young profile", "setting": "1449573_at expressed sequence AW319487", "value": ">100", "unit": "%"}, {"measurement": "Effect of resveratrol on changeing gene expression from old to young profile", "setting": "1449574_a_at cell division cycle 42 homolog (S. cerevisiae)", "value": ">100", "unit": "%"}, {"measurement": "Effect of resveratrol on changeing gene expression from old to young profile", "setting": "1449635_at DNA segment, Chr 19, Wayne State University 55, expressed", "value": ">100", "unit": "%"}, {"measurement": "Effect of resveratrol on changeing gene expression from old to young profile", "setting": "1449928_at t-complex-associated-testis-expressed 1-like", "value": "90-100%"}, {"measurement": "Effect of resveratrol on changeing gene expression from old to young profile", "setting": "1450006_at nuclear receptor coactivator 4", "value": "<60", "unit": "%"}, {"measurement": "Effect of resveratrol on changeing gene expression from old to young profile", "setting": "1450010_at hydroxysteroid (17-beta) dehydrogenase 12", "value": "90-100%"}, {"measurement": "Effect of resveratrol on changeing gene expression from old to young profile", "setting": "1450016_at cyclin G1", "value": "70-80%"}, {"measurement": "Effect of resveratrol on changeing gene expression from old to young profile", "setting": "1450017_at cyclin G1", "value": "60-70%"}, {"measurement": "Effect of resveratrol on changeing gene expression from old to young profile", "setting": "1450191_a_at SRY-box containing gene 13", "value": ">100", "unit": "%"}, {"measurement": "Effect of resveratrol on changeing gene expression from old to young profile", "setting": "1450351_a_at restin (Reed-Steinberg cell-expressed intermediate filament-associated protein)", "value": "60-70%"}, {"measurement": "Effect of resveratrol on changeing gene expression from old to young profile", "setting": "1450385_at karyopherin (importin) alpha 3", "value": "<60", "unit": "%"}, {"measurement": "Effect of resveratrol on changeing gene expression from old to young profile", "setting": "1450396_at stromal antigen 2", "value": "70-80%"}, {"measurement": "Effect of resveratrol on changeing gene expression from old to young profile", "setting": "1450416_at chromobox homolog 5 (Drosophila HP1a)", "value": "80-90%"}, {"measurement": "Effect of resveratrol on changeing gene expression from old to young profile", "setting": "1450462_at corticotropin releasing hormone receptor 2", "value": "70-80%"}, {"measurement": "Effect of resveratrol on changeing gene expression from old to young profile", "setting": "1450699_at selenium binding protein 1", "value": ">100", "unit": "%"}, {"measurement": "Effect of resveratrol on changeing gene expression from old to young profile", "setting": "1450724_at down-regulated by Ctnnb1, a", "value": ">100", "unit": "%"}, {"measurement": "Effect of resveratrol on changeing gene expression from old to young profile", "setting": "1450759_at bone morphogenetic protein 6", "value": ">100", "unit": "%"}, {"measurement": "Effect of resveratrol on changeing gene expression from old to young profile", "setting": "1450777_at 5′-3′ exoribonuclease 2", "value": ">100", "unit": "%"}, {"measurement": "Effect of resveratrol on changeing gene expression from old to young profile", "setting": "1450839_at DNA segment, human D4S114", "value": "90-100%"}, {"measurement": "Effect of resveratrol on changeing gene expression from old to young profile", "setting": "1450846_at basic leucine zipper and W2 domains 1", "value": "80-90%"}, {"measurement": "Effect of resveratrol on changeing gene expression from old to young profile", "setting": "1450853_at transducin-like enhancer of split 4, homolog of Drosophila E(spl)", "value": "80-90%"}, {"measurement": "Effect of resveratrol on changeing gene expression from old to young profile", "setting": "1450890_a_at abl-interactor 1", "value": ">100", "unit": "%"}, {"measurement": "Effect of resveratrol on changeing gene expression from old to young profile", "setting": "1450908_at eukaryotic translation initiation factor 4E", "value": ">100", "unit": "%"}, {"measurement": "Effect of resveratrol on changeing gene expression from old to young profile", "setting": "1450917_at myomesin 2", "value": ">100", "unit": "%"}, {"measurement": "Effect of resveratrol on changeing gene expression from old to young profile", "setting": "1450957_a_at sequestosome 1", "value": ">100", "unit": "%"}, {"measurement": "Effect of resveratrol on changeing gene expression from old to young profile", "setting": "1450958_at transmembrane 4 superfamily member 1", "value": ">100", "unit": "%"}, {"measurement": "Effect of resveratrol on changeing gene expression from old to young profile", "setting": "1450974_at tissue inhibitor of metalloproteinase 4", "value": ">100", "unit": "%"}, {"measurement": "Effect of resveratrol on changeing gene expression from old to young profile", "setting": "1450997_at serine/threonine kinase 17b (apoptosis-inducing)", "value": "90-100%"}, {"measurement": "Effect of resveratrol on changeing gene expression from old to young profile", "setting": "1451047_at integral membrane protein 2A", "value": "80-90%"}, {"measurement": "Effect of resveratrol on changeing gene expression from old to young profile", "setting": "1451072_a_at ring finger protein 4 [BLAST]", "value": "70-80%"}, {"measurement": "Effect of resveratrol on changeing gene expression from old to young profile", "setting": "1451109_a_at neural precursor cell expressed, developmentally down-regulted gene 4", "value": "<60", "unit": "%"}, {"measurement": "Effect of resveratrol on changeing gene expression from old to young profile", "setting": "1451124_at superoxide dismutase 1, soluble", "value": "90-100%"}, {"measurement": "Effect of resveratrol on changeing gene expression from old to young profile", "setting": "1451168_a_at Rho GDP dissociation inhibitor (GDI) alpha", "value": ">100", "unit": "%"}, {"measurement": "Effect of resveratrol on changeing gene expression from old to young profile", "setting": "1451229_at histone deacetylase 11", "value": ">100", "unit": "%"}, {"measurement": "Effect of resveratrol on changeing gene expression from old to young profile", "setting": "1451295_a_at chromodomain helicase DNA binding protein 4", "value": ">100", "unit": "%"}, {"measurement": "Effect of resveratrol on changeing gene expression from old to young profile", "setting": "1451336_at lectin, galactose binding, soluble 4", "value": "90-100%"}, {"measurement": "Effect of resveratrol on changeing gene expression from old to young profile", "setting": "1451345_at methylthioadenosine phosphorylase", "value": "<60", "unit": "%"}, {"measurement": "Effect of resveratrol on changeing gene expression from old to young profile", "setting": "1451350_a_at leptin receptor gene-related protein", "value": ">100", "unit": "%"}, {"measurement": "Effect of resveratrol on changeing gene expression from old to young profile", "setting": "1451422_at myosin XVIIIa", "value": ">100", "unit": "%"}, {"measurement": "Effect of resveratrol on changeing gene expression from old to young profile", "setting": "1451457_at sterol-C5-desaturase (fungal ERG3, delta-5-desaturase) homolog (S. cerevisae)", "value": ">100", "unit": "%"}, {"measurement": "Effect of resveratrol on changeing gene expression from old to young profile", "setting": "1451519_at ring finger protein 2", "value": ">100", "unit": "%"}, {"measurement": "Effect of resveratrol on changeing gene expression from old to young profile", "setting": "1451586_at testis enhanced gene transcript", "value": ">100", "unit": "%"}, {"measurement": "Effect of resveratrol on changeing gene expression from old to young profile", "setting": "1451726_at myotubularin related protein 6", "value": "80-90%"}, {"measurement": "Effect of resveratrol on changeing gene expression from old to young profile", "setting": "1451825_a_at coatomer protein complex, subunit zeta 1", "value": ">100", "unit": "%"}, {"measurement": "Effect of resveratrol on changeing gene expression from old to young profile", "setting": "1451871_a_at growth hormone receptor", "value": "<60", "unit": "%"}, {"measurement": "Effect of resveratrol on changeing gene expression from old to young profile", "setting": "1452011_a_at UDP-glucuronate decarboxylase 1", "value": "60-70%"}, {"measurement": "Effect of resveratrol on changeing gene expression from old to young profile", "setting": "1452044_at actin related protein 2/3 complex, subunit 5-like", "value": "90-100%"}, {"measurement": "Effect of resveratrol on changeing gene expression from old to young profile", "setting": "1452156_a_at nischarin", "value": "80-90%"}, {"measurement": "Effect of resveratrol on changeing gene expression from old to young profile", "setting": "1452157_at glutamyl-prolyl-tRNA synthetase", "value": "80-90%"}, {"measurement": "Effect of resveratrol on changeing gene expression from old to young profile", "setting": "1452207_at Cbp/p300-interacting transactivator, with Glu/Asp-rich carboxy-terminal domain, 2", "value": "60-70%"}, {"measurement": "Effect of resveratrol on changeing gene expression from old to young profile", "setting": "1452298_a_at Mus musculus similar to myosin homolog, brain - mouse (LOC383411), mRNA", "value": ">100", "unit": "%"}, {"measurement": "Effect of resveratrol on changeing gene expression from old to young profile", "setting": "1452433_at No description found", "value": "<60", "unit": "%"}]}]}
